# Article PMC12606047, “Targeting the Liquid–Liquid Separation Region of c‐Maf for Treating Chromosomal Translocations in Multiple Myeloma” (MedComm, 2025)
# No constants are given. Whether binding was seen depends on the method and setting. In cells and extracts the contact can be indirect. Some binding calls cover weakened binding; strength is not graded here.
# B1: Mtbp, Q96DY7 1-904 (protein)
# chain: MDRYLLLVIWGEGKFPSAASREAEHGPEVSSGEGTENQPDFTAANVYHLLKRSISASINPEDSTFPACSVGGIPGSKKWFFAVQAIYGFYQFCSSDWQEIHFDTEKDKIEDVLQTNIEECLGAVECFEEEDSNSRESLSLADLYEEAAENLHQLSDKLPAPGRAMVDIILLLSDKDPPKLKDYLPTVGALKHLREWYSAKITIAGNHCEINCQKIAEYLSANVVSLEDLRNVIDSKELWRGKIQIWERKFGFEISFPEFCLKGVTLKNFSTSNLNTDFLAKKIIPSKDKNILPKVFHYYGPALEFVQMIKLSDLPSCYMSDIEFELGLTNSTKQNSVLLLEQISSLCSKVGALFVLPCTISNILIPPPNQLSSRKWKEYIAKKPKTISVPDVEVKGECSSYYLLLQGNGNRRCKATLIHSANQINGSFALNLIHGKMKTKTEEAKLSFPFDLLSLPHFSGEQIVQREKQLANVQVLALEECLKRRKLAKQPETVSVAELKSLLVLTRKHFLDYFDAVIPKMILRKMDKIKTFNILNDFSPVEPNSSSLMETNPLEWPERHVLQNLETFEKTKQKMRTGSLPHSSEQLLGHKEGPRDSITLLDAKELLKYFTSDGLPIGDLQPLPIQKGEKTFVLTPELSPGKLQVLPFEKASVCHYHGIEYCLDDRKALERDGGFSELQSRLIRYETQTTCTRESFPVPTVLSPLPSPVVSSDPGSVPDGEVLQNELRTEVSRLKRRSKDLNCLYPRKRLVKSESSESLLSQTTGNSNHYHHHVTSRKPQTERSLPVTCPLVPIPSCETPKLATKTSSGQKSMHESKTSRQIKESRSQKHTRILKEVVTETLKKHSITETHECFTACSQRLFEISKFYLKDLKTSRGLFEEMKKTANNNAVQVIDWVLEKTSKK
# Biological target: c‐Myc (human (endogenous in ARP1 and KMS28PE)), P01106
# Experiment: co-IP; Co-IP in ARP1 and KMS28PE MM cell lines; bait, antibodies and buffers not told
# Settings: remark: other sources report otherwise
binder,measurement,value
B1,binding,binds
